Laboratory results taken from PMC5345230, “Disruption of TWIST1-RELA binding by mutation and competitive inhibition to validate the TWIST1 WR domain as a therapeutic target” (BMC Cancer, 2017).
Where a chain is given by its changes, count along the chain named. Numbers in names are those of the source. Results are given in words; binding and its absence hold for the method and conditions named. Binding seen in cells or lysates may run through a third protein. Some binding calls cover weakened binding; strength is not graded here.

Protein sequences, listed by entry. Tags and fused reporters are not part of them.
UniProt Q04206: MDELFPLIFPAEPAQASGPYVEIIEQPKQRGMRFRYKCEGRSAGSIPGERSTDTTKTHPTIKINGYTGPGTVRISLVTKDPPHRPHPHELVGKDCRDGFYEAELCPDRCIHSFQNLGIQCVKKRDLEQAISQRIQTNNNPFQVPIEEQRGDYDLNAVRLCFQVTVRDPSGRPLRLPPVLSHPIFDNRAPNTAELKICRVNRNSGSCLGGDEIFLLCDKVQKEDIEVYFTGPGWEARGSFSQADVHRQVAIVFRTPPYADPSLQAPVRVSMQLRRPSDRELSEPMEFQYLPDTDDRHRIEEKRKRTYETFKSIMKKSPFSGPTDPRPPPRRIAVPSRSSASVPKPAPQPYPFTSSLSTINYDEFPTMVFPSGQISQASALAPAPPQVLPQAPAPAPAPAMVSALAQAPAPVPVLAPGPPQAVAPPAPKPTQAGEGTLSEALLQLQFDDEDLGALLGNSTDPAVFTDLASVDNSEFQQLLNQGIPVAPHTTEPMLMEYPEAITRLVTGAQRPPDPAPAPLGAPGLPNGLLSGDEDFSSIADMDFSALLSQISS

B1: TWIST1 E193A (natural protein, human, UniProt Q15672 1-202, looked up)
chain: MMQDVSSSPVSPADDSLSNSEEEPDRQQPPSGKRGGRKRRSSRRSAGGGAGPGGAAGGGVGGGDEPGSPAQGKRGKKSAGCGGGGGAGGGGGSSSGGGSPQSYEELQTQRVMANVRERQRTQSLNEAFAALRKIIPTLPSDKLSKIQTLKLAARYIDFLYQVLQSDELDSKMASCSYVAHERLSYAFSVWRMAGAWSMSASH
B2: TWIST1 R191A (natural protein, human, UniProt Q15672 1-202, looked up)
chain: B1 chain with R191A, A193E
B3: TWIST1 W190A (natural protein, human, UniProt Q15672 1-202, looked up)
chain: B1 chain with W190A, A193E

Assays:
[1] = molecular target: T1, RELA (wild type), NF-kB subunit p65 (UniProt Q04206 1-551); assay: co-IP; HEK-293 cells transiently transfected with TWIST1 and RELA alleles; RIPA lysate, pre-cleared; pulldown with rabbit anti-RELA and Protein A/G agarose at 4 °C overnight, five washes with PBS; western blot for TWIST1; ratio of TWIST1 to RELA, each normalized to its input
[2] = molecular target: T1, RELA (wild type), NF-kB subunit p65; assay: co-IP; as a1 (RELA pulldown), with TWIST1, RELA and rising shares of GFP-WR against control GFP co-expressed, total GFP held constant
[3] = molecular target: GFP-WR fusion protein (eGFP fused to the TWIST1 WR domain) (human) (UniProt Q15672); assay: co-IP; HEK-293 cells transfected with TWIST1, RELA and rising shares of GFP-WR against control GFP; RIPA lysate; pulldown with rabbit anti-GFP and Protein A/G agarose; western blot for TWIST1; ratio of TWIST1 to GFP, normalized to inputs

| Molecule | binding [1] | binding [2] | binding [3] |
| --- | --- | --- | --- |
| TWIST1 (wild type) (from UniProt Q15672 1-202) | binds | binds | binds |
| TWIST1 deltaWR (all twenty amino acids of the WR domain deleted) (from UniProt Q15672 1-182) (domain or fragment) | binds weakly |  |  |
| B1 | binds |  |  |
| B2 | binds |  |  |
| B3 | binds |  |  |
